Measurements as given in PMC7023381, “Sulfonamide Inhibition Profile of the β-Carbonic Anhydrase from Malassezia restricta, An Opportunistic Pathogen Triggering Scalp Conditions” (Metabolites, 2020).

Target: T1, MreCA (Malassezia restricta, UniProt A0A3G2S4B9)
T1 construct: gene can; recombinant from synthetic gene in pET100D-Topo, E. coli BL21(DE3) codon plus; N-terminal His6-tag fusion, 27 kDa on SDS-PAGE; no tag cleavage told
T1 sequence (A0A3G2S4B9 1-238): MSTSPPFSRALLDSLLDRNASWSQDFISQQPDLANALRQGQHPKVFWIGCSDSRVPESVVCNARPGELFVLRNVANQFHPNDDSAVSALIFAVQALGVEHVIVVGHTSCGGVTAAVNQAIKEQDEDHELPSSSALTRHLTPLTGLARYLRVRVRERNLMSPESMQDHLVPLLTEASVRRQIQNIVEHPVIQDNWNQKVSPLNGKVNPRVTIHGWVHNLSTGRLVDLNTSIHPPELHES
Test: stopped-flow CO2 hydrase assay
Assay type: biochemical

CCN[C@H]1C[C@H](C)S(=O)(=O)c2sc(S(N)(=O)=O)cc21 [DZA]
Ki: 810 nM
